Screening data

By UniProt entry, the sequences of proteins in these tests, tags left out.
UniProt P43220, whole entry, target on record: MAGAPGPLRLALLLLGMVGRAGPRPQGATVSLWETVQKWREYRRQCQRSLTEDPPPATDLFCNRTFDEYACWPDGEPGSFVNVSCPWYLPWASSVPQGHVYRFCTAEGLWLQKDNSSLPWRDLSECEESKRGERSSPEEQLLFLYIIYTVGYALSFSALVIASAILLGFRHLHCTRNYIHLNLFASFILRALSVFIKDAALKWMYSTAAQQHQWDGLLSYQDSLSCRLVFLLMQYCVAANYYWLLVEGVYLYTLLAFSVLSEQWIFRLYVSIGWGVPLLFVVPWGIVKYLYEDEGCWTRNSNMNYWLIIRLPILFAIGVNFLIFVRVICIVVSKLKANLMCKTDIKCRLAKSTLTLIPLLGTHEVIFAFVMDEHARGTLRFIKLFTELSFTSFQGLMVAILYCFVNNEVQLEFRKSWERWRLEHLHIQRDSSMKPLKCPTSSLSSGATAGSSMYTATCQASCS

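Agonist activity at human GLP-1R is gauged by the rise in cAMP-linked luciferase light from stably transfected HEK293 clones after a few hours of treatment. Compounds were run as a seven-point series from about 0.0029 to 46 µM. The value is the fitted half-maximal potency (AC50) for signal increase; a lower number means a more potent agonist. Calls come from curve class and fitted log AC50: scores of 40-100 mean active, 1-39 inconclusive, and 0 inactive.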

Values are in µM. Every entry below has the call inconclusive. These entries are mostly ones the record files as inconclusive; other results of the assay are not listed here. A potency from a partial, single-point or poor curve is only a rough figure. Some entries filed as inconclusive have a full curve. Activity scores are not listed here.

| compound | Potency (µM) | curve |
|---|---|---|
| `C[C@@H](NCCc1ccc(O)cc1)[C@@H](O)c1ccc(O)cc1` | 0.1158 | activator, full curve |
| `CNC(=O)[C@H]1O[C@@H](n2cnc3c(NCc4cccc(I)c4)ncnc32)[C@H](O)[C@@H]1O` | 10.32 | activator, partial curve |
| `CC(C)(C)NCC(O)c1ccccc1Cl` (stereo unspecified) | 0.0146 | activator, full curve |
| `CC(C)NCC(O)c1ccc(O)c(O)c1` (stereo unspecified) | 0.3663 | activator, full curve |
| `Cc1cc(C)c(/C=C2\C(=O)Nc3ccccc32)[nH]1` | 5.173 | activator, partial curve |
| `CNCCc1ccc(O)c(O)c1` | 5.173 | activator, full curve |
| `Nc1nc(Nc2ccccc2)nc2c1ncn2[C@@H]1O[C@H](CO)[C@@H](O)[C@H]1O` | 16.36 | activator, partial curve |
| `COc1ccc(Cc2nccc3cc(OC)c(OC)cc23)cc1OC` | 10.32 | activator, partial curve |
| `CNC[C@H](O)c1ccc(O)c(O)c1` | 2.593 | activator, full curve |
| `CNCC(O)c1ccc(O)c(O)c1` (stereo unspecified) | 2.311 | activator, full curve |
| `CC(C)NC[C@@H](O)c1ccc(O)c(O)c1` | 0.92 | activator, full curve |
| `CC(N)[C@H](O)c1ccc(O)c(O)c1` (stereo partly specified) | 9.2 | activator, partial curve |

For reference, 2 entries once more:

| compound | Potency (µM) | curve |
|---|---|---|
| `Nc1nc(Nc2ccccc2)nc2c1ncn2[C@@H]1O[C@H](CO)[C@@H](O)[C@H]1O` | 16.36 | activator, partial curve |
| `CNC[C@H](O)c1ccc(O)c(O)c1` | 2.593 | activator, full curve |

Data taken from PubChem BioAssay AID624148, deposited by NCATS (2012).